{"sequences": {"note": "Chains of the proteins cited; added tags and fusions are not shown. Residues count along the entry.", "UniProt P38647, residues 47-679": "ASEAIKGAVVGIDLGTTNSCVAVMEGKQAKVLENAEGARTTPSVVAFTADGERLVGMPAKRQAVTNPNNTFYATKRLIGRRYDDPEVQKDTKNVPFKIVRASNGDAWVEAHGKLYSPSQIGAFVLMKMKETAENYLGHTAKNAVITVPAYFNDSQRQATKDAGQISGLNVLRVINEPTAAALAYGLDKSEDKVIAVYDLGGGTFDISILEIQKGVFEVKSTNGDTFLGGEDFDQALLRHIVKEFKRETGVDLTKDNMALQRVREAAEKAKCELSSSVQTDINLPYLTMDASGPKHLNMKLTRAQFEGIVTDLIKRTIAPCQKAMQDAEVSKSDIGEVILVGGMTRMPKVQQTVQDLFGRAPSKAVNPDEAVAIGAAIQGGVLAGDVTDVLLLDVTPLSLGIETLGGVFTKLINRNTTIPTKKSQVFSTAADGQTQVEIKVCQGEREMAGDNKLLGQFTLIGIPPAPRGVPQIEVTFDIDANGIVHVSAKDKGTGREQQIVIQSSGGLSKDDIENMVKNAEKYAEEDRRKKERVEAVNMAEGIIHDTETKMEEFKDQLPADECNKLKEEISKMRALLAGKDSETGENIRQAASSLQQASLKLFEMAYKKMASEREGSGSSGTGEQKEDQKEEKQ", "UniProt P70227": "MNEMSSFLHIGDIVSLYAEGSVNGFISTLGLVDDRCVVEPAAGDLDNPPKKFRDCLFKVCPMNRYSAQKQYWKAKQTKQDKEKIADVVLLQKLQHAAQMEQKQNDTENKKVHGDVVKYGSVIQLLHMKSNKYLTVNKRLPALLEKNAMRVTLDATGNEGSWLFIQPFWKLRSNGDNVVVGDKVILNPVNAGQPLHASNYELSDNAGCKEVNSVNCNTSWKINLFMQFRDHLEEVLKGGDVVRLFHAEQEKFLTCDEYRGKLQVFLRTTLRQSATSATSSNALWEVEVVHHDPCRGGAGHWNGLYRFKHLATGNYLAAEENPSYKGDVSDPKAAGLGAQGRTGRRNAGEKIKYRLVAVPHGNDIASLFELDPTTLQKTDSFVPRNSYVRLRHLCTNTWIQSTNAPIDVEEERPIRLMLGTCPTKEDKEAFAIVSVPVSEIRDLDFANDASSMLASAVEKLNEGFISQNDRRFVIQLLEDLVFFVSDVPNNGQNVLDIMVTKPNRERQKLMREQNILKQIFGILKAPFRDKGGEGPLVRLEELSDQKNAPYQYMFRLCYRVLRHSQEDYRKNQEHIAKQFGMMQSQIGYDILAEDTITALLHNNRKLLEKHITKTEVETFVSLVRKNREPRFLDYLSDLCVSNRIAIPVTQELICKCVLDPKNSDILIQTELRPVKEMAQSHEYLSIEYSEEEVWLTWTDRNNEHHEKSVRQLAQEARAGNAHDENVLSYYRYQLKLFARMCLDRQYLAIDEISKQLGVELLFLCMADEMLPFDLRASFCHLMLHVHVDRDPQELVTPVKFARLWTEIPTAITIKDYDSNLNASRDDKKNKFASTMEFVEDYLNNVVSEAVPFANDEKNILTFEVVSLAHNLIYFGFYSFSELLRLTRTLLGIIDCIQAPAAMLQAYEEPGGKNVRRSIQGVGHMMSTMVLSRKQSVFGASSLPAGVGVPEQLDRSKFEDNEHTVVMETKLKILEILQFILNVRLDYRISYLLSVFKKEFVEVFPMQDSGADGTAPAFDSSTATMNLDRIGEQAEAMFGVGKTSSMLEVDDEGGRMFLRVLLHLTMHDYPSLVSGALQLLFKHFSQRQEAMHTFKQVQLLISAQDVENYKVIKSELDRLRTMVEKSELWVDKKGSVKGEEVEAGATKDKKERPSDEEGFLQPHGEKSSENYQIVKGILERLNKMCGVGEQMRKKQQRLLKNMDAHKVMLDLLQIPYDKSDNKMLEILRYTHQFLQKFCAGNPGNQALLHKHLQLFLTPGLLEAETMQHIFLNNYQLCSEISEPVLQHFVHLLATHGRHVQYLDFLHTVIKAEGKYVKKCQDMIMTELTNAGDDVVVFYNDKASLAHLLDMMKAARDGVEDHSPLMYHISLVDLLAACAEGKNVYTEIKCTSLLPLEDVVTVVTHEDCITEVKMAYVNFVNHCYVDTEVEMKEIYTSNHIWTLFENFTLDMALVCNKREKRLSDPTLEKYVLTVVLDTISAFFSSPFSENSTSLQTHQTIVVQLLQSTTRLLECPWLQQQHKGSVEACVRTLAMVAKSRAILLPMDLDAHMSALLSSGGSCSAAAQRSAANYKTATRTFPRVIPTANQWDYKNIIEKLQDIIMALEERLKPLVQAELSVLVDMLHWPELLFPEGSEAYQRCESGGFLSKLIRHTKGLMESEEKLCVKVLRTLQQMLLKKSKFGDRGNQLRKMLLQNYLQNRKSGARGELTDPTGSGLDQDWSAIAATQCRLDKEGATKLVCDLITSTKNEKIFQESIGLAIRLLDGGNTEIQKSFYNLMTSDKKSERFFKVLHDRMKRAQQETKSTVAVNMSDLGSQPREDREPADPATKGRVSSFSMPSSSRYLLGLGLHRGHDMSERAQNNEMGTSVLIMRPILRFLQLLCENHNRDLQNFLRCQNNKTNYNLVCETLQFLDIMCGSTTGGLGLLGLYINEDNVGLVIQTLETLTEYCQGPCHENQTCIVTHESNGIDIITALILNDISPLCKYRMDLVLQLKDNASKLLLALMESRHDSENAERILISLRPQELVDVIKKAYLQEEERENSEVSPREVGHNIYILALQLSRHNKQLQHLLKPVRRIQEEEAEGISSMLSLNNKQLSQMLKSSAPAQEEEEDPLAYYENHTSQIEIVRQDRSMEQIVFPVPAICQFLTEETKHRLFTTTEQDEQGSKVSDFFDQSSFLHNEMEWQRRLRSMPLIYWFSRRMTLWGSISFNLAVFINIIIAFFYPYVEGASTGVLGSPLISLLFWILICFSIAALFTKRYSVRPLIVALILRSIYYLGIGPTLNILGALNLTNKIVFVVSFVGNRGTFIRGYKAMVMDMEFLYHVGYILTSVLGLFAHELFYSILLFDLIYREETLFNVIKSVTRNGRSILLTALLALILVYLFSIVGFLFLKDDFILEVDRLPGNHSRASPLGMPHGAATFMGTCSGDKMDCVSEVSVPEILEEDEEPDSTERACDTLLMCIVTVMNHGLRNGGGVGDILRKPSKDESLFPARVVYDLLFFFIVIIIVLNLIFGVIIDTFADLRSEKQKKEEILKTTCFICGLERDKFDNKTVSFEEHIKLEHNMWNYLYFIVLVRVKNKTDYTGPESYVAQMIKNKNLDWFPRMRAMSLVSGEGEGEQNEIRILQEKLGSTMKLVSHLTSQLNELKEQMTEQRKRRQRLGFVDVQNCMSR"}, "source": "paper PMC11189428", "key": {"[1]": {"target": "glucose-regulated protein 75 (mouse (endogenous in mouse hippocampus, primary microglia and BV2 cells)) (UniProt P38647)", "experiment": "proximity ligation; in situ Duolink PLA on 35-um frozen mouse brain sections (hippocampal DG), primary antibodies to IP3R-3, GRP75 and VDAC1 1:200 overnight at 4 C; control and CSDS mice, Iba-1 staining for microglia"}, "[2]": {"target": "glucose-regulated protein 75 (mouse (endogenous in mouse hippocampus, primary microglia and BV2 cells)) (UniProt P38647)", "experiment": "proximity ligation; Duolink PLA on cells grown on coverslips, fixed with 4% paraformaldehyde, 0.1% Triton X-100; primary microglia (and BV2 cells) untreated or treated with thapsigargin (1 uM, 12 h) or ATP (1 mM, 2 h)"}}, "note": "These are yes or no findings as the source states them, for the method shown. Binding seen in cells or lysates may run through a third protein. Some binding calls cover weakened binding; strength is not graded here."}
{"substance": "inositol 1,4,5-triphosphate receptor 3 (from UniProt P70227 1-2670)", "values": [{"measurement": "binding", "setting": "[1]", "value": "binds"}, {"measurement": "binding", "setting": "[2]", "value": "binds"}]}
